# Where “and” joins values, the source holds several entries; their conditions need not be identical. Equal values may be shown once. Out of some 300,000 compounds screened, about 5,400 (1.8%) were called active. The inconclusive results got no clear call from the source; some entries with a clear call stand among them for comparison. The call rests on the fitted dose curve; tested in HEK293 cells. Potencies of inconclusive entries are doubtful fits and often do not repeat.
# Assay: qHTS for inhibitors of binding or entry into cells for Marburg Virus
# Conditions: Marburg virus pseudotyped entry inhibition, cell reporter; activity change, negative = inhibition: at 37.8 µM (top of the series) unless noted
# On the % scale 0 is the no-effect control and ±100 the full control effect; potency means the concentration at half of the fitted maximal effect.
SMILES,"activity change, negative = inhibition",Potency
Cc1cc(OC(=O)CCNC(=O)OC(C)(C)C)c2c3c(c(=O)oc2c1)CCC3,inactive: 0.984%,–
CCCOc1cccc(NC(=O)OC2CCN(C)CC2)c1,–,"inconclusive: 0.891 µM [activator, full curve, poor fit]"
CCN(CC)S(=O)(=O)c1ccc2c(c1)nc(CCC(=O)Nc1ccccc1Cc1ccccc1)n2CC,–,"inconclusive: 18.3 µM [inhibitor, single point]"
Cc1cccc(-c2noc(Cc3ccc(Cl)cc3)n2)c1,–,"inconclusive: 14.1 µM [activator, partial curve]"
CC(C)COc1nc2ccccc2nc1[C@H](C#N)C(=O)NC1CCCCC1,inactive: -1.24%,–
COc1ccc(C(=O)N/C(=C\c2cccs2)c2nc3ccccc3[nH]2)cc1OC,inactive: -5.76%,–
O=C(/C=C\N1CCOCC1)c1ccc(Br)cc1,inactive: -23.7%,–
CCC(C)NC(=O)CO/N=C/c1ccc(C(=O)OC)cc1 (stereo not drawn),–,"inconclusive: 8.91 µM [inhibitor, partial curve, poor fit]"
O=C1c2ccccc2-c2cc3ccccc3cc21,inactive: -17.4%,–
COC(=O)c1c(C(=O)OC)c(-c2ccccc2)n2c1CS(=O)(=O)C2,inactive: -8.44%,–
CNC(=O)c1sc(-c2ccccc2)nc1C,–,"inconclusive: 11.2 µM [activator, partial curve, poor fit]"
O=C(Nc1nc2c(s1)C(=O)CCC2)c1ccccc1,–,"inconclusive: 0.891 µM [inhibitor, full curve, poor fit]"
O=C(CSc1nc2c(oc3ccccc32)c(=O)n1Cc1ccco1)Nc1ccccc1,inactive: 10.9% [at 46.1 µM],–
CSc1cc(CS(=O)(=O)c2ccccc2)nc(-c2ccccc2)n1,inactive: -4.6% [at 46.1 µM],–
CCC(C)c1c(O)nc(SCC(=O)c2ccccc2)[nH]c1=O (stereo not drawn),inactive: 14.8%,–
CC(C)OC(=O)c1cc2c(ccn2C)n1CC(=O)N(Cc1ccccc1)c1ccc(F)cc1,–,active: 5.17 µM
CCCCN(Cc1nc2ccccc2c(=O)[nH]1)C(=O)c1nn(C)c(=O)c2ccccc12,–,"inconclusive: 6.31 µM [inhibitor, single point]"
CN(C)c1ccc(/C=c2\sc3n(c2=O)CCCN=3)cc1,–,"inconclusive: 10 µM [inhibitor, partial curve, poor fit]"
Cc1nc(C)c(C(=O)NNS(=O)(=O)c2ccccc2)s1,–,"inconclusive: 1.64 µM [inhibitor, single point]"
CCc1nc2ccccc2n1CC(=O)NC1CCS(=O)(=O)C1 (stereo not drawn),inactive: 6.99%,–
Cc1ccc(C(=O)C(c2ccccc2)N2Cc3ccccc3C2=N)cc1 (stereo not drawn),–,"inconclusive: 12.6 µM [inhibitor, partial curve, poor fit]"
O=[N+]([O-])c1cccc2ccc(/C=C/c3cccc(Br)c3)nc12,inactive: -18.5%,–
Cc1ccc(Cc2cn3cc(-c4ccccc4)nc3s2)cc1,inconclusive: 9.16% [activator] [at 46.1 µM],–
COc1cccc(C=CC(=O)C=CC=Cc2ccccc2)c1,–,"inconclusive: 0.562 µM [inhibitor, full curve, poor fit]"

# Some of these compounds in order of heavy-atom count, largest number first:
SMILES,"activity change, negative = inhibition",Potency
COc1ccc(C(=O)N/C(=C\c2cccs2)c2nc3ccccc3[nH]2)cc1OC,inactive: -5.76%,–
O=[N+]([O-])c1cccc2ccc(/C=C/c3cccc(Br)c3)nc12,inactive: -18.5%,–
O=C(/C=C\N1CCOCC1)c1ccc(Br)cc1,inactive: -23.7%,–

# More entries

SMILES,"activity change, negative = inhibition",Potency
CC(=O)N1CCN(C(=O)CNC(=O)c2ccc(Br)o2)CC1,inactive: 4.39% [at 46.1 µM],–
C=CCOc1ccc(C(=O)n2cc(C(=O)OC)c3ccccc32)cc1,inactive: 15.4%,–
COCCSc1nnc(NC(=O)C2CC(=O)N(c3ccc(Cl)cc3)C2)s1 (stereo not drawn),–,"inconclusive: 35.5 µM [inhibitor, single point]"
COc1ccc(C2CC(c3c(-c4ccccc4)c4cc(Cl)ccc4[nH]c3=O)=NN2S(C)(=O)=O)cc1 (stereo not drawn),–,"inconclusive: 17.8 µM [inhibitor, single point]"
CCC(=O)c1ccc(N2CCN(C(=O)COc3ccccc3F)CC2)c(F)c1,inactive: -0.311% [at 46.1 µM],–
O=C(NCc1cccc(Cl)c1)C1CCC(=O)N(CC2CCCCC2)C1 (stereo not drawn),inactive: -1.9%,–
Cc1ccc(NC(C(=O)c2ccccc2)c2ccccc2)cc1 (stereo not drawn),–,"inconclusive: 35.5 µM [inhibitor, single point]"
CCCN1CCc2c(sc(NC(=O)C3CCN(S(=O)(=O)c4cccs4)CC3)c2C(N)=O)C1,–,"inconclusive: 15.8 µM [inhibitor, single point]"
COc1cnc(-c2ccccn2)nc1Oc1c(C)cccc1C,–,"inconclusive: 10 µM [inhibitor, partial curve, poor fit]"
CCn1c(COc2ccccc2C)nnc1SCC(=O)Nc1cc(C)on1,–,"inconclusive: 3.26 µM [inhibitor, single point]"
CC(C)c1cc(C(=O)N2CCCC(CCC(=O)NCc3ccccc3F)C2)n(C)n1 (stereo not drawn),–,"inconclusive: 8.91 µM [inhibitor, partial curve, poor fit]"
COc1ccc(-n2nc(C(=O)NCC(=O)N3CCN(C)CC3)c3ccccc3c2=O)cc1,inactive: -0.952% [at 46.1 µM],–
N/C(=N\OC(=O)c1ccc2c(c1)OCO2)c1cccnc1,–,"inconclusive: 35.5 µM [inhibitor, single point]"
CCCCN(C(=O)c1ccc(S(=O)(=O)N2CCC(C)CC2)cc1)C1CCS(=O)(=O)C1 (stereo not drawn),–,"inconclusive: 1.26 µM [inhibitor, single point]"
Cc1ccc(C)c(Cn2c(=O)n(-c3ccc(Cl)cc3)c(=O)c3c(C)c(C)sc32)c1,inactive: 5.9% [at 46.1 µM],–
O=C(O)Cn1cc2c(n1)CCCCC2,inactive: 15.3%,–
O=C(Oc1cccc(Nc2ncnc3ccccc23)c1)c1ccccc1Cl,–,"inconclusive: 28.2 µM [inhibitor, partial curve, poor fit]"
CNC(=S)N/N=C/c1c(C)nn(-c2ccccc2)c1Cl,inactive: -26.4%,–
Cn1cc(CNCc2cn(C)nc2-c2ccc(C3CCCCC3)cc2)cn1,–,"inconclusive: 20 µM [inhibitor, single point]"
O=c1[nH]oc2c1CCNC2,–,"inactive and inconclusive: 355 nM [inhibitor, partial curve]"
COc1ccc(C(=O)Nc2cnc(NC(=O)c3cccs3)cc2C)cc1,–,"inconclusive: 29.1 µM [inhibitor, single point]"
Cc1ccc(C)c(C(=O)COC(=O)c2c(-c3ccccc3)noc2C)c1,inactive: -6.94%,–
FC(F)(F)c1ccc2c(c1)n(Cc1ccccc1)c1[n+]2CCCCC1,inactive: -3.43%,–
Cc1ccc2cc(CN(Cc3ccco3)C(=O)NCc3ccccc3)c(=O)[nH]c2c1C,–,"inconclusive: 35.5 µM [inhibitor, single point]"

# Source: PubChem BioAssay AID540276 (National Center for Advancing Translational Sciences (NCATS), 2011)
